Record: PubChem BioAssay AID1671195 (Yale University, 2021)
Test: 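Regulators of LDL receptor activity judged by labelled LDL uptake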 (primary screen). Cell system: human Huh7 hepatoma cells. Reagents: siRNA pool against human genes, 18 nM. Time to read-out: about 2 to 2.5 days of knockdown, then 8 h LDL uptake. Challenge: DiI-labelled LDL at 30 µg/ml for 8 h, in lipoprotein-deficient serum medium. Measured: 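Per-cell DiI-LDL intensity by automated imaging; well means scaled to the plate median and given as a robust z-score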. Scale: robust z-score: higher = more LDL uptake after knockdown. Call rule: 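Active when two or more replicates show a robust z-score above 2 or below -2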.
Here is an unselected part of about 22,000 reagents tested. About 1,510 of them (6.9%) count as active. 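Active includes knockdowns raising or lowering LDL uptake; positive z-scores mean more uptake, negative mean less.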 A number with no mark means an inactive call.

Silencing of LOC401454 (retired record) gave: robust z-score, replicate 1 = -1.17; robust z-score, replicate 2 = -2.72; robust z-score, replicate 3 = -0.996.
After knock-down of TBKBP1, the screen gave robust z-score, replicate 1 = -0.538; robust z-score, replicate 2 = -1.79; robust z-score, replicate 3 = -1.46.
Against LOC442096 (retired record), the values are robust z-score, replicate 1 = -0.424; robust z-score, replicate 2 = 0.0146; robust z-score, replicate 3 = -0.12.
With knock-down of MAU2 the results were robust z-score, replicate 1 = -0.275; robust z-score, replicate 2 = -0.48; robust z-score, replicate 3 = -0.134.
For EPN2 the deposit lists robust z-score, replicate 1 = -0.931; robust z-score, replicate 2 = -1.18; robust z-score, replicate 3 = -1.27.
POF1B gave robust z-score, replicate 1 = -0.741; robust z-score, replicate 2 = -1.06; robust z-score, replicate 3 = -0.736.
With knock-down of SLC13A1 the results were robust z-score, replicate 1 = -0.292; robust z-score, replicate 2 = -0.414; robust z-score, replicate 3 = -0.317.
Depletion of OR10G3 resulted in: robust z-score, replicate 1 = 4.22; robust z-score, replicate 2 = -0.393; robust z-score, replicate 3 = 1.15.
Depletion of EIF3H came out at: robust z-score, replicate 1 = 0.0829; robust z-score, replicate 2 = 2.11; robust z-score, replicate 3 = -0.0348.
MBNL2 gave robust z-score, replicate 1 = -0.557; robust z-score, replicate 2 = -0.0181; robust z-score, replicate 3 = -0.0666.
After knock-down of FKBPL, the record shows robust z-score, replicate 1 = 0.52; robust z-score, replicate 2 = 0.791; robust z-score, replicate 3 = 0.753.
Depletion of SCN4B came out at: robust z-score, replicate 1 = 3.84 (active); robust z-score, replicate 2 = 3.95; robust z-score, replicate 3 = 3.08.
After knock-down of IST1, the screen gave robust z-score, replicate 1 = -0.112; robust z-score, replicate 2 = -0.495; robust z-score, replicate 3 = 0.306.
After knock-down of SLC25A17, the record shows robust z-score, replicate 1 = 0.904; robust z-score, replicate 2 = 0.368; robust z-score, replicate 3 = 0.902.
After knock-down of GSTA1 the results were robust z-score, replicate 1 = -1.41; robust z-score, replicate 2 = 0.0655; robust z-score, replicate 3 = -1.65.
After knock-down of CDH24 the results were robust z-score, replicate 1 = 1.67; robust z-score, replicate 2 = 1.21; robust z-score, replicate 3 = 1.22.
Knock-down of MUC1 gave: robust z-score, replicate 1 = -1.29; robust z-score, replicate 2 = -1.16; robust z-score, replicate 3 = -1.66.
KLK8 gave robust z-score, replicate 1 = -1.56; robust z-score, replicate 2 = -1.71; robust z-score, replicate 3 = -1.55.
DEFB128 gave robust z-score, replicate 1 = -0.534; robust z-score, replicate 2 = 0.307; robust z-score, replicate 3 = -0.554.
ANKRD20A19P showed robust z-score, replicate 1 = -0.374; robust z-score, replicate 2 = -0.889; robust z-score, replicate 3 = -0.718.
After knock-down of LACTB, the screen gave robust z-score, replicate 1 = 2.95 (active); robust z-score, replicate 2 = 2.01; robust z-score, replicate 3 = 2.6.
Silencing of KASH5 came out at: robust z-score, replicate 1 = 0.411; robust z-score, replicate 2 = -0.127; robust z-score, replicate 3 = 0.144.
After knock-down of LOC387898 (retired record) the results were robust z-score, replicate 1 = -0.776; robust z-score, replicate 2 = -0.461; robust z-score, replicate 3 = -0.366.
Depletion of FUOM gave: robust z-score, replicate 1 = -0.267; robust z-score, replicate 2 = -0.349; robust z-score, replicate 3 = -0.205.

Reprinted from above for reference:
SCN4B → robust z-score, replicate 1: 3.84 (active); robust z-score, replicate 2: 3.95; robust z-score, replicate 3: 3.08
IST1 → robust z-score, replicate 1: -0.112; robust z-score, replicate 2: -0.495; robust z-score, replicate 3: 0.306
